{
  "sequences": {"note": "The chains behind the UniProt entries cited, without tags or fusion partners. Residues count along the entry.", "UniProt Q9HC16": "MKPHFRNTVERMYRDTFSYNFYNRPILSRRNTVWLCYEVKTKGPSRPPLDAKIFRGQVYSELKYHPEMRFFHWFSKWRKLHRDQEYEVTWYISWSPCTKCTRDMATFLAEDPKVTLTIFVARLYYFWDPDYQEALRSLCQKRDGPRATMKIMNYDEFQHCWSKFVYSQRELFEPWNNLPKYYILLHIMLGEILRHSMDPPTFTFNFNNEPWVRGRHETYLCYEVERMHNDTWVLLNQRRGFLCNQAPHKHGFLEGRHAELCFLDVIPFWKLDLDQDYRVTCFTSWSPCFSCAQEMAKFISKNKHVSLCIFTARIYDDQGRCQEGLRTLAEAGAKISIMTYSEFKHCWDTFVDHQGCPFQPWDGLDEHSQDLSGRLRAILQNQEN", "UniProt Q99IB8, residues 1031-1661": "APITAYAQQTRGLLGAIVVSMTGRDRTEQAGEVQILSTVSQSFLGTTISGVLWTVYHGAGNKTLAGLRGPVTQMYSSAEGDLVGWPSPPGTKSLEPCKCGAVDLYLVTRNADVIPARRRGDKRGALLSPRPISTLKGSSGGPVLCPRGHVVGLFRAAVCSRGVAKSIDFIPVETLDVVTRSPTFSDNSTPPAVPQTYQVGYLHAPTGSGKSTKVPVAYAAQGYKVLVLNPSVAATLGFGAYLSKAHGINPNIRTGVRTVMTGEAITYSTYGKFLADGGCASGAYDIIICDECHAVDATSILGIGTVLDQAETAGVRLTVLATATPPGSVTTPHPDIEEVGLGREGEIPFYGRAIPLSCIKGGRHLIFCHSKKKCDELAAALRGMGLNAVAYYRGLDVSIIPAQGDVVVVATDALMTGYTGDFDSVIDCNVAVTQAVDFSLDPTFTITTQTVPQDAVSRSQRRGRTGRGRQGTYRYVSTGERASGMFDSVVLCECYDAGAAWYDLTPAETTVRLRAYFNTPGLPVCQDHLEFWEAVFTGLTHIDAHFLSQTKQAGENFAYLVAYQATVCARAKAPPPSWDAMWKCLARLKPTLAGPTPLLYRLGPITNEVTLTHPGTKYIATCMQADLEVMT"},
  "source": "paper PMC4374698",
  "key": {"purified hA3G-HA (human)": {"molecular_target": "purified hA3G-HA (human) (UniProt Q9HC16)", "experiment": "SPR; BIAcore T100; purified hA3G-HA immobilised on CM5 chip (NHS/EDC); NS3-His injected at 0.3, 0.6, 1.2 or 3 μM in HBS-EP+ buffer; both purified"}, "[1]": {"molecular_target": "full length wild-type hA3G fused with an HA tag at the C-terminus (hA3G-HA), in lysate of transfected Huh7.5 cells (human) (UniProt Q9HC16)", "experiment": "co-IP; lysate of HCV-infected Huh7.5 cells transfected with phA3G-HA; HA-specific antibody 16 hrs at 4°C, Protein A Agarose, washed 4 times with DPBS; western blot with anti-NS3"}},
  "note": "No constants are given. Whether binding was seen depends on the method and setting. For some assays here: In cells and extracts the contact can be indirect. Some entries that bind do so weakly or less than the wild type.",
  "data": [
    {"substance": "full-length HCV NS3 with His tag at the C-terminus (NS3-His), purified (from UniProt Q99IB8 1031-1661)", "values": [
      {"measurement": "binding", "setting": "purified hA3G-HA (human)", "result": "binds"}
    ]},
    {"substance": "HCV non-structural protein NS3, from HCV-infected Huh7.5 cells (from UniProt Q99IB8 1031-1661)", "values": [
      {"measurement": "binding", "setting": "[1]", "result": "binds"}
    ]}
  ]
}
